Patent US7601674B2, “α-oxygenated or α-thiolated carboxylic acid phenethylamide derivatives” (priority 2001, dated 2009)
Some of these results come from one statement about several compounds together. At least one compound was matched to its structure with a doubt left. Some ranges recur; such a range may be that of the whole group of compounds.

Experiments:
Format in all cases: in vivo
Phytophthora [1] = experiment: D-2a Action against Phytophthora on tomato plants, residual-protective action; conditions: 200 ppm, test D-2a residual-protective, untreated plants attack 80-100%
Procedure: (§1) D-2: Action Against Phytophthora on Tomato Plants
(§2) a) Residual-protective Action
(§3) After a cultivation period of 3 weeks, tomato plants are sprayed with a spray mixture (0.02% active ingredient) prepared from a wettable powder formulation of the test compound. After 48 hours, the treated plants are infected with a sporangia suspension of the fungus. Fungus infestation is evaluated after incubation of the infected plants for 5 days at 90-100% relative humidity and +20° C.

Plasmopara viticola [2] = experiment: D-1b Action against Plasmopara viticola on vines, residual-curative action; conditions: 200 ppm, vine seedlings, test D-1b residual-curative; untreated plants attack 80-100%
Procedure: (§4) D-1: Action Against Plasmopara viticola on Vines
b) Residual-curative Action
Vine seedlings are infected at the 4- to 5-leaf stage with a sporangia suspension of the fungus. After incubation for 24 hours in a humidity chamber at 95-100% relative humidity and […], the infected plants are dried and sprayed with a spray mixture (0.02% active ingredient) prepared from a wettable powder formulation of the test compound. After the spray coating has dried, the treated plants are placed in the humidity chamber again. Fungus infestation is evaluated 6 days after infection.

Phytophthora [3] = experiment: D-2b Action against Phytophthora on tomato plants, systemic action; conditions: 200 ppm, test D-2b systemic (soil drench), untreated plants attack 80-100%
Procedure: as §1
as §3, with “watered” for “sprayed”, “ingredient based on the volume of the soil)” for “ingredient)”, “compound. […]” for “compound.”, “96” for “48”, “4” for “5”

Plasmopara viticola [4] = experiment: D-1a Action against Plasmopara viticola on vines, residual-protective action; conditions: 200 ppm, vine seedlings, test D-1a residual-protective; untreated plants attack 80-100%
Procedure: as §4, §2
Vine seedlings are sprayed at the 4- to 5-leaf stage with a spray mixture (0.02% active ingredient) prepared from a wettable powder formulation of the test compound. After 24 hours, the treated plants are infected with a sporangia suspension of the fungus. Fungus infestation is evaluated after incubation for 6 days at 95-100% relative humidity and +20° C.

Phytophthora [5] = experiment: D-3a Action against Phytophthora on potato plants, residual-protective action; conditions: 200 ppm, potato plants (Bintje), test D-3a residual-protective; untreated plants attack 80-100%
Procedure: (§5) D-3: Action Against Phytophthora on Potato Plants
as §2
(§6) 2-3 week old potato plants (Bintje variety) are sprayed with a spray mixture (0.02% active ingredient) prepared from a wettable powder formulation of the test compound. After 48 hours, the treated plants are infected with a sporangia suspension of the fungus. Fungus infestation is evaluated after incubation of the infected plants for 4 days at 90-100% relative humidity and +20° C.

Phytophthora [6] = experiment: D-3b Action against Phytophthora on potato plants, systemic action; conditions: 200 ppm, potato plants (Bintje), test D-3b systemic (soil drench); untreated plants attack 80-100%
Procedure: as §5
as §6, with “watered” for “sprayed”, “ingredient based on the volume of the soil)” for “ingredient)”, “compound. […]” for “compound.”, “C. Fungal infestation is effectively controlled with compounds of Tables 1 to 64.” for “C.”

Measured: inhibition of fungal infestation

C#CCOc1ccc(CCNC(=O)C(COc2ccc(F)cc2)OCC#C)cc1OC (stereo not drawn) [Compound E1.17]
80-100%: Phytophthora [1] | Plasmopara viticola [2] | Phytophthora [3] | Plasmopara viticola [4]

C#CCOc1ccc(CCNC(=O)C(COc2ccc(Br)cc2)OCC#C)cc1OC (stereo not drawn) [Compound E1.29]
80-100%: Phytophthora [1] | Plasmopara viticola [2] | Phytophthora [3] | Plasmopara viticola [4]

C#CCOc1ccc(CCNC(=O)C(CCc2ccc(CC)cc2)OCC#C)cc1OC (stereo not drawn) [Compound E1.46]
80-100%: Phytophthora [1] | Plasmopara viticola [2] | Phytophthora [3] | Plasmopara viticola [4] | Phytophthora [5] | Phytophthora [6]

C#CCOc1ccc(CCNC(=O)C(COc2ccc(C)cc2)OCC#C)cc1OC (stereo not drawn) [Compound E1.32]
80-100%: Phytophthora [1] | Plasmopara viticola [2] | Phytophthora [3] | Plasmopara viticola [4] | Phytophthora [5] | Phytophthora [6]

C#CCOc1ccc(CCNC(=O)C(CCc2ccc(C)cc2)OCC#C)cc1OC (stereo not drawn) [Compound E1.06]
80-100%: Phytophthora [1] | Plasmopara viticola [2] | Phytophthora [3] | Plasmopara viticola [4]

C#CCOc1ccc(CCNC(=O)C(COc2ccc(CC)cc2)OCC#C)cc1OC (stereo not drawn) [Compound E1.49]
80-100%: Phytophthora [1] | Plasmopara viticola [2] | Phytophthora [3] | Plasmopara viticola [4] | Phytophthora [5] | Phytophthora [6]

C#CCOc1ccc(CCNC(=O)C(COCCc2ccc(Cl)cc2)OCC#C)cc1OC (stereo not drawn) [Compound E1.60]
80-100%: Phytophthora [1] | Phytophthora [3]

C#CCOc1ccc(CCNC(=O)C(O)COc2ccc(Cl)c(Cl)c2)cc1OC (stereo not drawn) [Compound E1.50]
80-100%: Phytophthora [1] | Plasmopara viticola [2] | Phytophthora [3] | Plasmopara viticola [4]

C#CCOc1ccc(CCNC(=O)C(CCCCc2ccccc2)OCC#C)cc1OC (stereo not drawn) [Compound E1.57]
80-100%: Phytophthora [1] | Phytophthora [3]

C#CCOc1ccc(CCNC(=O)C(COc2ccccc2)OCC#C)cc1OC (stereo not drawn) [Compound E1.14]
80-100%: Phytophthora [1] | Plasmopara viticola [2] | Phytophthora [3] | Plasmopara viticola [4] | Phytophthora [5] | Phytophthora [6]

C#CCOc1ccc(CCNC(=O)C(CCc2ccccc2)OCC#C)cc1OC (stereo not drawn) [Compound E1.03]
80-100%: Phytophthora [1] | Plasmopara viticola [2] | Phytophthora [3] | Plasmopara viticola [4] | Phytophthora [5] | Phytophthora [6]

C#CCOc1ccc(CCNC(=O)C(COc2ccc(Cl)c(Cl)c2)OCC#C)cc1OC (stereo not drawn) [Compound E1.51]
80-100%: Phytophthora [1] | Plasmopara viticola [2] | Phytophthora [3] | Plasmopara viticola [4] | Phytophthora [5] | Phytophthora [6]

C#CCOc1ccc(CCNC(=O)C(COCc2ccccc2)OCC#C)cc1OC (stereo not drawn) [Compound E1.38]
80-100%: Plasmopara viticola [2] | Plasmopara viticola [4]

C#CCOc1ccc(CCNC(=O)C(CSc2ccc(Cl)cc2)OCC#C)cc1OC (stereo not drawn) [Compound E1.35]
80-100%: Phytophthora [1] | Phytophthora [3] | Phytophthora [5] | Phytophthora [6]

C#CCOc1ccc(CCNC(=O)C(CSc2ccc(C)cc2)OCC)cc1OC (stereo not drawn) [Compound E1.53]
80-100%: Phytophthora [1] | Plasmopara viticola [2] | Phytophthora [3] | Plasmopara viticola [4] | Phytophthora [5] | Phytophthora [6]

C#CCOc1ccc(CCNC(=O)C(O)CCc2ccc(F)cc2)cc1OC (stereo not drawn) [Compound E1.41]
80-100%: Phytophthora [1] | Phytophthora [3]

C#CCOc1ccc(CCNC(=O)C(COc2ccc(Br)cc2)OCC)cc1OC (stereo not drawn) [Compound E1.28]
80-100%: Phytophthora [1] | Phytophthora [3]

C#CCOc1ccc(CCNC(=O)C(COc2ccc(Cl)cc2)OCC)cc1OC (stereo not drawn) [Compound E1.25]
80-100%: Phytophthora [1] | Plasmopara viticola [2] | Phytophthora [3] | Plasmopara viticola [4] | Phytophthora [5] | Phytophthora [6]

C#CCOc1ccc(CCNC(=O)C(CCc2ccc(F)cc2)OCC#C)cc1OC (stereo not drawn) [Compound E1.43]
80-100%: Phytophthora [1] | Plasmopara viticola [2] | Phytophthora [3] | Plasmopara viticola [4] | Phytophthora [5] | Phytophthora [6]
